Measurements as given in PubChem BioAssay AID1688 (National Center for Advancing Translational Sciences (NCATS), 2009).
About 2,400 (1.1%) of roughly 220,000 compounds were called active. The inconclusive results got no clear call from the source; some entries with a clear call stand among them for comparison. Calls follow the shape of the dose curve; as a rule, active = well fitted inhibition curve with a large enough effect; inconclusive = small, poorly fitted or top-dose-only effect, or effect the other way; inactive = no such curve, though single readings can be large or run the other way. Where the call is inconclusive, the potency comes from a doubtful curve fit.

test: qHTS Multiplex Assay to Identify Dual Action Probes in a Cell Model of Huntington: Aggregate Formation (GFP); details: PC12 HttQ103-GFP aggregates, Acumen cytometry, 40 h; activity change, negative = inhibition: at 46.1 µM (top of the series) unless noted; also: nearly all actives have a fitted effect of over 60% in size
How it was run: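 Using laser scanning cytometry, GFP-positive aggregates were counted after lysis of PC12 cells induced with 100 nM tebufenozide to express HTT exon 1 Q103–GFP. Compounds were tested in titration.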
% is scaled to controls: 0 for no effect and ±100 for the full control effect; potency is read from the fitted curve at half-maximal effect.

| SMILES | Potency | activity change, negative = inhibition |
| --- | --- | --- |
| COc1cc(-c2nc3cnccn3c2Nc2ccc(C(C)C)cc2)ccc1O | inconclusive: 35.5 µM [inhibitor, partial curve] | – |
| CC(C)CCn1c(N2CCN(Cc3ccccc3)CC2)nc2c1c(=O)[nH]c(=O)n2C | inconclusive: 1.41 µM [inhibitor, partial curve] | – |
| CCOc1ccc(NS(=O)(=O)c2cc(Cl)ccc2OC)cc1 | inconclusive: 15.8 µM [inhibitor, single point] | – |
| O=[N+]([O-])c1cccc(C2NCC(c3ccccc3Cl)c3c2[nH]c2ccccc32)c1 (stereo not given) | inconclusive: 35.5 µM [inhibitor, single point] | – |
| CCCCCCCC[n+]1cccc2c3ccccc3ccc21 | inconclusive: 3.16 µM [inhibitor, full curve] | – |
| COc1cccc(-n2c(SCC(=O)Nc3sc4c(c3C(N)=O)CCC4)nc3ccccc3c2=O)c1 | inconclusive: 0.562 µM [activator, full curve, poor fit] | – |
| COC(=O)CNC(c1ccccc1Cl)c1cc(Br)ccc1NS(=O)(=O)c1ccc(C)cc1 (stereo not given) | inconclusive: 35.5 µM [inhibitor, single point] | – |
| O=C1CCCN1c1ccc(S(=O)(=O)NCCc2ccc(Cl)cc2)cc1 | inconclusive: 28.2 µM [inhibitor, single point] | – |
| COc1ccccc1Oc1ccc2c(c1)C(=O)N(c1ccc(O)cc1)C2=O | inconclusive: 5.62 µM [activator, single point] | – |
| Nc1nc(SCC(=O)c2ccc([N+](=O)[O-])cc2)n[nH]1 | inconclusive: 11.2 µM [activator, partial curve] | – |
| CCN(CC)S(=O)(=O)c1ccc(N2CCN(S(=O)(=O)c3ccccc3C#N)CC2)nc1 | inconclusive: 35.5 µM [inhibitor, single point] | – |
| O=[N+]([O-])c1cc(S(=O)(=O)C(F)(F)F)ccc1Sc1nc2ccccc2[nH]1 | inconclusive: 35.5 µM [inhibitor, partial curve, poor fit] | – |
| Cc1nc(NC(=O)CSc2ccccc2N)sc1C | inactive | – |
| N#Cc1c(SCC(=O)O)nc(-c2ccccc2)c2c1CCCC2 | inconclusive: 11.2 µM [activator, partial curve] | – |
| O=C(NC1CCCCC1)Sc1ccc(Cl)cc1 | inactive | – |
| COc1ccc(NC(=O)CC2C(=O)N(C)C(=S)N2Cc2ccc3c(c2)OCO3)cc1 (stereo not given) | inconclusive: 3.16 µM [activator, partial curve] | – |
| Cc1cc(C(C)(C)C)cc(C)c1S(=O)(=O)N1CC(=O)Nc2ccccc21 | – | inactive: -2.47% [at 9.22 µM] |
| CCCCN(C)CCCNC(=O)Cn1c(=O)sc2ccccc21 | inconclusive: 1.26 µM [activator, single point] | – |
| Cc1cc([N+](=O)[O-])cc2c1NCC1CC=CC21 (stereo not given) | inactive | – |
| Cc1nc(N)c(Cc2ccc(Cl)cc2Cl)c(N)n1 | inconclusive: 22.4 µM [inhibitor, single point] | – |
| COCCNC(=S)NN=C1CCCCCC1 | inactive | – |
| CCCCCCCCCC[n+]1cccc2c3ccccc3ccc21 | inconclusive: 7.08 µM [inhibitor, full curve, poor fit] | – |
| Cc1cc(C)c(NC(=O)c2ccc(CN3CCc4ccccc4C3)cc2)c(C)c1 | inconclusive: 15.8 µM [inhibitor, single point] | – |

Complete entries, quoted from the list. Order of values: Potency	activity change, negative = inhibition
COc1ccc(NC(=O)CC2C(=O)N(C)C(=S)N2Cc2ccc3c(c2)OCO3)cc1 (stereo not given) is entered as inconclusive: 3.16 µM [activator, partial curve]	–
COc1ccccc1Oc1ccc2c(c1)C(=O)N(c1ccc(O)cc1)C2=O is entered as inconclusive: 5.62 µM [activator, single point]	–

(further entries)

| SMILES | Potency | activity change, negative = inhibition |
| --- | --- | --- |
| CC(C)C(c1nnnn1Cc1ccco1)N1CCN(c2cccc(Cl)c2)CC1 (stereo not given) | inconclusive: 31.6 µM [inhibitor, single point] | – |
| CC(=O)N1CCN(C(=O)Cn2c(=O)oc3ccccc32)CC1 | inconclusive: 35.5 µM [activator, single point] | – |
| Nc1cc(Cl)ccc1N1CCCCCC1 | inconclusive: 11.2 µM [inhibitor, single point] | – |
| O=C(CNC(=O)c1ccccc1)N/N=C/c1cc(Br)ccc1O | active: 3.16 µM | – |
| CCOc1ccc(Cc2nc(N)nc(N)n2)cc1 | inactive | – |
| Cc1nc2cc(C(=O)NCc3ccc4c(c3)OCO4)ccc2n1-c1ccc(Br)cc1 | inconclusive: 0.562 µM [inhibitor, partial curve, poor fit] | – |
| Cc1cccc(C(=O)NNC(=O)c2ccc(Cl)cc2)c1O | inconclusive: 5.62 µM [inhibitor, partial curve] | – |
| CCCC1C2CN(C(C)C)CC=C2C(C#N)=C(N)C1(C#N)C#N (stereo not given) | inconclusive: 35.5 µM [inhibitor, single point] | – |
| CCOc1ccc(NC(=O)CSc2nc3cccnc3n2CC)cc1 | inactive | – |
| Cc1ccc(NC(=O)/C=C/c2ccc3c(c2)OCO3)cc1S(=O)(=O)N1CCOCC1 | inconclusive: 35.5 µM [inhibitor, single point] | – |
| CCOc1cc(C(=O)N/N=C(\C)Cc2ccc(OC)cc2)cc(OCC)c1OCC | inactive | – |
| COCCCNC(=O)/C=C/c1c(Cl)cccc1Cl | inactive | – |
| CCN(CCNC(=O)C1CCCN(Cc2nc(-c3ccc(OC)cc3)oc2C)C1)c1ccccc1 (stereo not given) | inconclusive: 31.6 µM [inhibitor, single point] | – |
| Cc1cc(=O)oc(C)c1C(=O)OCC(=O)c1ccc(Br)cc1 | inactive | – |
| COc1cccc(-c2cc(C(=O)O)no2)c1 | inactive | – |
| O=c1cc(N2CCCCC2)c(-c2ccccc2)nn1Cc1ccc(F)cc1 | inconclusive: 14.1 µM [inhibitor, single point] | – |
| Cc1cccc(Oc2ccc(NC(=O)c3ccccc3C(=O)O)cc2)c1 | – | inactive: -12.4% [at 9.22 µM] |
| COc1cc(/C=N/NC(=O)C(=O)N2CCCC2)ccc1O | inactive | – |
| Cc1ccccc1C(=O)c1c[nH]c(C(=O)N2CCN(c3ccccc3F)CC2)c1 | inconclusive: 25.1 µM [inhibitor, single point] | – |
| CCOc1cc(C2C(C#N)=C(N)OC(C)=C2C(C)=O)c(Br)c(Br)c1OC(C)C (stereo not given) | inconclusive: 2.51 µM [inhibitor, full curve, poor fit] | – |
| O=C(c1ccc(CNc2c(N3CCCC3)c(=O)c2=O)cc1)N1CCc2ccccc2C1 | inconclusive: 0.794 µM [activator, single point] | – |
| COc1ccc(N(CC(=O)N/N=C/c2ccc3c(c2)OCO3)S(=O)(=O)c2ccc(NC(C)=O)cc2)cc1 | inactive | – |
